PubChem BioAssay AID1259405 | NCATS, 2018
Screen: 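Mouse-designed siRNAs used to find CHO productivity engineering targets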 (primary screen). Cells: Chinese hamster CHO-K1 ovary cells with stable secreted eGFP expression. Reagent: single siRNA against mouse genes, 0.8 pmol siRNA per well (2 µl of 400 nM stock). Duration: 3 days. Read-out: 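Per-well intracellular GFP measured by laser scanning cytometry, plus viability from ATP luminescence, each relative to plate median of non-targeting control wells, in %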. Scale: GFP, % of control: higher = more GFP per well, higher productivity; viability (ATP), % of control: higher = more viable cells (more ATP). Active means: 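a knock-down is called active if GFP reaches 120% or more of non-targeting control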.
In all, the deposit lists about 50,000 reagents; this is a part drawn at random. In the full data, about 4,000 (8%) were called active. 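Mouse siRNA library applied to hamster cells; one well for each siRNA.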 Reagents against one gene are numbered here.

no.	gene knocked down	siRNA no.	GFP, % of control	viability (ATP), % of control	activity call
1	Tbx1 (T-box 1)	1	54.2	66.7	inactive
2	Tbx1 (T-box 1)	2	65.5	70.6	inactive
3	Tbx1 (T-box 1)	3	64.4	73.4	inactive
4	Sh3bp5l (SH3 binding domain protein 5 like)	1	70.9	74.3	inactive
5	Sh3bp5l (SH3 binding domain protein 5 like)	2	81.4	76.1	inactive
6	Sh3bp5l (SH3 binding domain protein 5 like)	3	75.1	89.5	inactive
7	Pcbd1	1	49	47.9	inactive
8	Pcbd1	2	67.8	73.9	inactive
9	Heatr3 (HEAT repeat containing 3)	1	38	68.1	inactive
10	Heatr3 (HEAT repeat containing 3)	2	73.8	74.7	inactive
11	Heatr3 (HEAT repeat containing 3)	3	153	129	active
12	Mreg (melanoregulin)	1	66.1	63.6	inactive
13	Mreg (melanoregulin)	2	94.5	82.4	inactive
14	Mreg (melanoregulin)	3	69.4	90.9	inactive
15	Atp11b (ATPase, class VI, type 11B)	1	65.3	47.3	inactive
16	Atp11b (ATPase, class VI, type 11B)	2	88	92.5	inactive
17	Atp11b (ATPase, class VI, type 11B)	3	49.2	71	inactive
18	Rab3gap2 (RAB3 GTPase activating protein subunit 2)	1	91.8	101	inactive
19	Rab3gap2 (RAB3 GTPase activating protein subunit 2)	2	72.9	50.9	inactive
20	Rab3gap2 (RAB3 GTPase activating protein subunit 2)	3	104	65.3	inactive

Limited to “viability (ATP), % of control”, for 2 of the entries above:
Atp11b (ATPase, class VI, type 11B) #3 = 71
Rab3gap2 (RAB3 GTPase activating protein subunit 2) #1 = 101

More records follow.
no.	gene knocked down	siRNA no.	GFP, % of control	viability (ATP), % of control	activity call
21	Or2ak6 (olfactory receptor family 2 subfamily AK member 6)	1	69.8	52.1	inactive
22	Or2ak6 (olfactory receptor family 2 subfamily AK member 6)	2	83.1	70	inactive
23	Or2ak6 (olfactory receptor family 2 subfamily AK member 6)	3	83.2	83.9	inactive
24	Tmem255a (transmembrane protein 255A)	1	44.8	77.4	inactive
25	Tmem255a (transmembrane protein 255A)	2	83.7	92.9	inactive
26	Tmem255a (transmembrane protein 255A)	3	89.4	126	inactive
27	Ddx41 (DEAD box helicase 41)	1	92.4	77.4	inactive
28	Ddx41 (DEAD box helicase 41)	2	72	70.9	inactive
29	Ddx41 (DEAD box helicase 41)	3	145	149	active
30	Rp2 (retinitis pigmentosa 2 homolog)	1	70	88.7	inactive
31	Rp2 (retinitis pigmentosa 2 homolog)	2	52.2	51.9	inactive
32	Rp2 (retinitis pigmentosa 2 homolog)	3	75.3	67.3	inactive
33	Brsk1 (BR serine/threonine kinase 1)	1	106	64.4	inactive
34	Tfpt (TCF3 (E2A) fusion partner)	1	41.7	56.1	inactive
35	Tfpt (TCF3 (E2A) fusion partner)	2	124	135	active
36	Tfpt (TCF3 (E2A) fusion partner)	3	138	111	active
